PubChem BioAssay AID504774 – Drosophila RNAi Screening Center, 2011
Aim: 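Genes required for cells to withstand methyl methanesulphonate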 (primary screen). System: Drosophila Kc167 cells. Reagents: long dsRNA against Drosophila genes, about 0.25 µg dsRNA per well. Time to read-out: about 6 days: 3 days knock-down, then 3 days with or without MMS. Treatment: methyl methanesulphonate 0.004% (w/v) for 3 days after knock-down. Detection: 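Viability in wells given MMS, read as ATP luminescence, normalised by quantiles plate by plate and averaged across replicates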. Scale: mean viability with MMS: higher = more surviving cells after MMS.
In all, the deposit lists about 23,000 reagents; below is a random part of those with a known target gene and a result. 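Values are quantile-normalised luminescence on an arbitrary scale; higher means more cells surviving MMS.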 Names joined by + are all predicted targets of the reagent. Further read-outs or replicates are left out here.

The first 8 records, ahead of the listing:
no.	gene knocked down	DRSC id	mean viability with MMS
1	CG34041	DRSC22276	3.45e6
2	CG6216	DRSC10606	3.63e6
3	CG31460	DRSC14370	3.57e6
4	Hml	DRSC11183	3.33e6
5	GstE8	DRSC06678	3.55e6
6	mtt	DRSC05106	3.15e6
7	mtt	DRSC05107	3.28e6
8	mtt	DRSC06753	3.45e6

Main list, from the start:
no.	gene knocked down	DRSC id	mean viability with MMS
1	CG34041	DRSC22276	3.45e6
2	CG6216	DRSC10606	3.63e6
3	CG31460	DRSC14370	3.57e6
4	Hml	DRSC11183	3.33e6
5	GstE8	DRSC06678	3.55e6
6	mtt	DRSC05106	3.15e6
7	mtt	DRSC05107	3.28e6
8	mtt	DRSC06753	3.45e6
9	mtt	DRSC07235	3.50e6
10	Afg3l2	DRSC10657	3.54e6
11	CG7182	DRSC10780	3.53e6
12	CG32830 (retired record)	DRSC01162	3.02e6
13	CG32830 (retired record)	DRSC23151	3.65e6
14	Grl62c	DRSC07964	3.65e6
15	HemK1	DRSC03253	3.40e6
16	Him	DRSC19638	3.49e6
17	DCTN5-p25	DRSC03525	3.47e6
18	Cyp309a2	DRSC00526	3.46e6
19	sgll	DRSC15442	3.56e6
20	IntS1	DRSC04343	3.12e6
21	TfAP-2	DRSC11601	3.60e6
22	l(1)G0320	DRSC18255	3.39e6
23	Datp	DRSC01102	3.49e6
24	Cwc25	DRSC00545	3.24e6
25	CG32069 + Blos2	DRSC10621	3.75e6
26	CG18493	DRSC15334	3.63e6
27	GABA-B-R3	DRSC00561	3.56e6
28	CNMaR	DRSC08992	3.46e6
29	CNMaR	DRSC10224	3.64e6
30	CG34214	DRSC04490	3.74e6
31	CG3526	DRSC17240	3.52e6
32	CG3526	DRSC18636	3.52e6
33	nmo	DRSC08902	3.49e6
34	nmo	DRSC11377	3.47e6
35	CG2680	DRSC18466	3.48e6
36	DAAM	DRSC18479	1.71e6
37	CG1648	DRSC06610	3.67e6
38	Dh31	DRSC02196	3.48e6
39	Syp	DRSC13444	3.40e6
40	Syp	DRSC15286	3.64e6
41	GstD2	DRSC16684	3.77e6
42	CG9590	DRSC16506	3.68e6
43	Trf4	DRSC00729	3.46e6
44	nvy	DRSC04705	3.68e6
45	Cont	DRSC12149	3.56e6
46	CG8026	DRSC07055	3.53e6
47	CG8026	DRSC07056	3.49e6
48	CG11398	DRSC18625	3.50e6
49	CG12609	DRSC19473	3.39e6
50	spas	DRSC15929	3.40e6
51	CG30116	DRSC05935	3.59e6
52	CG30116	DRSC06685	3.61e6
53	lncRNA:CR32657	DRSC19403	3.59e6
54	CG2201	DRSC03721	3.49e6
55	CG11893	DRSC14429	3.62e6
56	Eaf6	DRSC09901	3.48e6
57	CG5071	DRSC15710	3.52e6
58	CG5071	DRSC22570	3.71e6
59	CG30148	DRSC06391	1.93e6
60	ND-B12	DRSC04060	3.57e6
61	wcy	DRSC20132	3.47e6
62	Hira	DRSC18672	3.38e6
63	CG8929	DRSC07298	3.59e6
64	CG8929	DRSC22847	3.45e6
65	eIF4G2	DRSC14207	3.39e6
66	eIF4G2	DRSC21739	3.29e6
67	THG	DRSC01896	3.79e6
68	grp + CG31782 (retired record)	DRSC03541	3.44e6
